Assay results as given in article PMC8006279.
These are yes or no findings as the source states them, for the method shown. Binding seen in cells or lysates may run through a third protein. Some results given as binding are weak or reduced against the parent protein; the word gives no strength.

The chains behind the UniProt entries cited, without tags or fusion partners.
UniProt Q9WTL8: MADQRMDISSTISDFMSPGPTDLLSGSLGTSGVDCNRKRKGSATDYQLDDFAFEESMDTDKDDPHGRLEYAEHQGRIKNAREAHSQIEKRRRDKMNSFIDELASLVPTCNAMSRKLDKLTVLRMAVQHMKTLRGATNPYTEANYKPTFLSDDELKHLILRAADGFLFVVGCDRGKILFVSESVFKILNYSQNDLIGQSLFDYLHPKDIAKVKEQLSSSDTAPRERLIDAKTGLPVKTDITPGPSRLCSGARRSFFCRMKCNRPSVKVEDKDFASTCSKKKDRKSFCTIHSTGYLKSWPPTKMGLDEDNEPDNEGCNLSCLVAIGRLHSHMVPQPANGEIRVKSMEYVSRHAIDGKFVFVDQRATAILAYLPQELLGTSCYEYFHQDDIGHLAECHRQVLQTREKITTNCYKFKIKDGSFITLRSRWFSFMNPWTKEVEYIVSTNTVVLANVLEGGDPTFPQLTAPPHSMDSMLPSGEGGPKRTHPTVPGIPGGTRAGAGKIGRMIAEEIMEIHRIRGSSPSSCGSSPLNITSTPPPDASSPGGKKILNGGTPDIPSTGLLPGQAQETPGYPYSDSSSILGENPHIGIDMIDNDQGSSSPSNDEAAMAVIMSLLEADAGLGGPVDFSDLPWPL

Target: Brain and Muscle Arnt-Like Protein-1 (Bmal1) (mouse (endogenous in RAW264.7)) (UniProt Q9WTL8)
Test: co-IP; lysate of LPS-induced RAW264.7 cells (M1 macrophages); Co-IP kit (BersinBio); protein A/G-MagBeads coupled with anti-Bmal1 and anti-S100A9 antibodies at 4°C overnight; nonspecific IgG as control; western blot

B1: S100A9 protein (protein, UniProt P31725 1-113)
chain: MANKAPSQMERSITTIIDTFHQYSRKEGHPDTLSKKEFRQMVEAQLATFMKKEKRNEALINDIMEDLDTNQDNQLSFEECMMLMAKLIFACHEKLHENNPRGHGHSHGKGCGK
For B1, the binding was “binds”.
